T. brucei: 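Whole-parasite assay of Trypanosoma brucei over 72 hours; the read-out is not stated. Concentration: 30 µM. Higher reads as stronger inhibition (inferred: compounds with an IC50 in retests scored well above the rest). Values scatter widely below zero; nearly all retest evidence comes from the higher of the two concentrations used. Size under these conditions: about 64,000 compounds, about 940 of them at 50% or above in at least one test.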
PfKRS1: 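Lysine-tRNA ligase, Plasmodium falciparum 3D7 (UniProt Q8IDJ8). Enzyme assay of the cytosolic lysyl-tRNA synthetase in 384-well plates, read by luminescence. Concentration: 30 µM. Direction is inferred from only a few compounds that gave an IC50; most scored high, so higher reads as stronger inhibition. About 69,000 compounds were tested under these conditions; 0.071% (about 49) showed 50% or more at least once.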

The chains behind the UniProt entries cited, without tags or fusion partners. Residues count along the entry.
UniProt Q8IDJ8, 1-583: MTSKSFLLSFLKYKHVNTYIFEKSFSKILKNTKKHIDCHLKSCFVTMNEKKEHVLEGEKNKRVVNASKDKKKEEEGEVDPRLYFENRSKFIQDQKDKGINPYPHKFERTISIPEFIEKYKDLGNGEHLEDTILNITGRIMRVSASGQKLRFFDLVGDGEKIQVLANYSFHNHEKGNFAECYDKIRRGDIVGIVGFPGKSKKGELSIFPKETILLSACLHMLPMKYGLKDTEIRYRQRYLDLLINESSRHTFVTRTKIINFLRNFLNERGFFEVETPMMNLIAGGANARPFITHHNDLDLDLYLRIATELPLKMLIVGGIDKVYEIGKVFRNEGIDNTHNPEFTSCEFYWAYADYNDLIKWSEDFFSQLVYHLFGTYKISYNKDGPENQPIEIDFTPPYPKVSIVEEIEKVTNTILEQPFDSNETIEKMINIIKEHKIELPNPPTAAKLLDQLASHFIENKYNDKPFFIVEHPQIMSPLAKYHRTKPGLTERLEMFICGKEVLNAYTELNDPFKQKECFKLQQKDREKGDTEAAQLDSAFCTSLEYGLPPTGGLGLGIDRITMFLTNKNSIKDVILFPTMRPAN

Each number is a percent effect as filed.
How 0% and 100% were set is not recorded. Most values in the screen are low, and negative values occur.
Compounds were drawn at random from those tested, without regard to their results.
A dash means the value is not listed here; it may have been measured.

SMILES | T. brucei | PfKRS1
CC1CCN(CCNC(=O)c2sccc2C2CC2)CC1 | -20.2% | 4.451%
Cc1nc(O)ccc1C(=O)NCc1ncccc1F | -21.75% | 2.534%
Cc1ccc(F)c2c1CCCN2CC(=O)NC1CCS(=O)(=O)C1 (stereo not given) | -9.551% | 4.26%
CC(C)(C)c1cc(NC(=O)C2COCCO2)n(-c2ccccn2)n1 (stereo not given) | -14.57% | 0.811%
O=C(NCc1cc2n(n1)CCCN(Cc1ccc(Cl)s1)C2)C1CCC1 | -6.561% | 5.724%
Fc1cccc(C(NCc2ncc[nH]2)c2ccccn2)c1 (stereo not given) | -19.72% | 2.946%
[H][C@@]12CS(=O)(=O)C[C@]1([H])N(C(=O)NCCc1ccc(OC)cc1)CCN2C | -9.719% | -
CSCCc1n[nH]c2c1CN(S(=O)(=O)c1c(C)nn(C)c1C)CC2 | -57.89% | 1.74%
Cc1cs/c(=N\C(=O)Cn2nc(N3CCSCC3)ccc2=O)[nH]1 | -3.576% | 1.765%
Cc1noc(C)c1CNC(=O)C1(NS(C)(=O)=O)CCCCC1 | -71.59% | 1.767%
Cc1noc(C)c1CN1CCn2cc(CN3CCCCC3)nc2C1 | - | 3.01%
COC(=O)c1ccc(N2CCN(C(=O)c3ccc(O)nc3)C(C)C2)cc1 (stereo not given) | 14.29% | -2.663%
Cc1cc(C)n(CC(=O)NCc2ccccn2)n1 | -23.94% | 5.21%
Cc1nnsc1C(=O)NCc1cccnc1N(C)Cc1ccccc1 | 22.83% | 6.241%
Fc1ccc2[nH]c3c(c2c1)CCN1C(c2ccncc2)N2CCC31CC2 (stereo not given) | 100.7% | -0.3147%
COCc1nn(C(C)C)c2c1CCN(Cc1ccsc1)C2 | -11.3% | 5.23%
CCc1ncnc2c1CCN(Cc1ccc(OC)cc1)CC2.O=C(O)C(F)(F)F | 16% | -
Cc1nn(C)c2nc(N(Cc3ccccc3)CC3CCCO3)sc12 (stereo not given) | -10.2% | 3.92%
Oc1cccc(CN2CCN(c3nccc(CCC(F)(F)F)n3)CC2)c1 | -0.04743% | -0.8837%
Cc1cccc(CN2CCc3cc(C(=O)O)c(N(C)C)nc3CC2)n1.O=C(O)C(F)(F)F.O=C(O)C(F)(F)F | -4.937% | -
Cc1cc2nc(SCC(=O)NC(C)C)n(Cc3ccco3)c(O)c-2n1 | -9.708% | 2.634%
O=C(Nc1ccc(Br)cc1F)c1ccc(N2CCOCC2)nn1 | -28.67% | 5.998%
O=C(C1COCCO1)N1CCN(Cc2ccc3c(c2)CCO3)CC1 (stereo not given) | 0.1338% | 0.6224%
CC(C)c1ccc(C#N)c(N2CC(C)(C)[C@@](C)(O)C2)n1 | -21.59% | 6.054%
CN(Cc1ccc2c(c1)OCO2)Cc1nc(Cc2ccccc2)no1 | -1.003% | -1.865%
CC(C)Nc1cc(-c2c[nH]nc2C2CCN(C(=O)C3CC3)C2)ccn1 (stereo not given) | 99.82% | 3.099%
O=C(O)c1cc(S(=O)(=O)Nc2cccc3c2OCCO3)c(Cl)cc1F | -23.99% | 2.946%
CNc1ncccc1CN1CCC1c1cc(N)nc(C)n1 (stereo not given) | -19.38% | -1.549%
CC(C)[C@H]1CN(CCS(C)(=O)=O)C[C@@H]1NC(=O)c1ccc(=O)[nH]c1 | -20.38% | 5.634%
CC(=O)NC[C@H]1COCc2nc3c(C)cccc3n21 | -46.88% | -6.583%
Cc1nc(C)n(CC2CN(CCOc3ccccc3C#N)CCO2)n1 (stereo not given) | 15.36% | -0.4628%
CC(CCc1ccccc1)N1CCC(C(=O)NCc2ccccc2)CC1 (stereo not given) | -13.09% | 10.09%
[H][C@@]12CN(C(=O)c3ccsc3)C[C@]1([H])C(=O)N(Cc1ccc(OC)cc1)C2 | -8.64% | -
CN(CCc1ccccn1)c1cnn(C)c(=O)c1Br | -20.55% | 3.606%
CCn1ccc(C(=O)NCCCN2CCOCC2)n1 | -9.052% | 6.675%
CC(C)c1nnc(NC(=O)Cc2ccc(F)cc2)[nH]1 | -36.13% | 5.756%
COc1ccc(CN2C[C@@H](CN(C)C)[C@@H](CO)C2)cc1OC | 13.52% | 4.13%
CC(NC(=O)N1CCNC(=O)CC1)c1c(F)cccc1Cl (stereo not given) | -18.35% | 7.705%
NC(=O)CN1CCC(NC(=O)Nc2nccs2)CC1 | -15.58% | 3.985%
CCc1cnc(CN(C)C(=O)Nc2cnc3c(c2)c(C)nn3C)s1 | 9.562% | 2.724%
CN(C)c1ncc(-c2cncn2CCc2ccc3c(c2)OCCO3)cn1 | - | -0.3855%
O=C(NCC(F)(F)F)c1ccc(-n2cccn2)nn1 | -0.95% | 3.733%
COCc1cnc2n1CCN(C1CCCC1)C2C (stereo not given) | - | 6.411%
Cc1nn(C)cc1NC(=O)CN1CCC(Oc2cnccn2)CC1 | - | 3.763%
Cc1ccc(C2CCCN2CC(=O)N(CCC#N)c2ccccc2)cc1 (stereo not given) | -28.51% | 1.667%
COCc1ncn(Cc2nc(-c3ccc(OC)cc3F)oc2C)n1 | -22.44% | 2.089%
O=C(CCNS(=O)(=O)c1cccnc1)N1CCOC(c2ccccc2)C1 (stereo not given) | -4.675% | 4.73%
CCCOC(=O)N1CCc2cccc(S(=O)(=O)N3CCOCC3)c2C1 | -18.49% | 3.128%
Cc1nc(NC2CCOCC2)cc(C2CCN2S(C)(=O)=O)n1 (stereo not given) | 0.4897% | 0.2563%
O=C(O)C(F)(F)F.O=C(O)C(F)(F)F.[H][C@@]12CCC(=O)N(Cc3cccc(C)n3)[C@]1([H])CCN2Cc1ccc(F)cc1 | 7.19% | -
Cc1cc(N2CCC(Cc3ccncc3)C2)ncn1 (stereo not given) | - | 2.586%
O=C(C1CCN(c2ccnc3ccc(Br)cc23)CC1)N1CCOCC1 | -48.49% | -0.3425%
CCc1ncc(CN[C@@H]2CCCN(C(C)=O)[C@H]2c2ccc(C)s2)cn1.Cl | -10.3% | -
CC(C)Cc1cc(C(=O)N2CCCN(c3cccnn3)CC2)[nH]n1 | -0.508% | 0.3088%
O=C(NCc1ccccc1CN1CCCC1)Nc1nncs1 | 6.54% | 8.384%
CS(=O)(=O)c1cc(NC(=O)COc2ccccc2F)cc(C(=O)O)c1 | 8.805% | 6.355%
O=C(Nc1ccccn1)NC(CCCO)c1ccccc1 (stereo not given) | -44.83% | -0.3159%
CCOC(=O)C1CCCN(Cc2cc(C#N)n(C)c2C)C1 (stereo not given) | -3.398% | 30.75%

The first 6 entries again:

| SMILES | T. brucei | PfKRS1 |
|---|---|---|
| `CC1CCN(CCNC(=O)c2sccc2C2CC2)CC1` | -20.2% | 4.451% |
| `Cc1nc(O)ccc1C(=O)NCc1ncccc1F` | -21.75% | 2.534% |
| `Cc1ccc(F)c2c1CCCN2CC(=O)NC1CCS(=O)(=O)C1` (stereo not given) | -9.551% | 4.26% |
| `CC(C)(C)c1cc(NC(=O)C2COCCO2)n(-c2ccccn2)n1` (stereo not given) | -14.57% | 0.811% |
| `O=C(NCc1cc2n(n1)CCCN(Cc1ccc(Cl)s1)C2)C1CCC1` | -6.561% | 5.724% |
| `Fc1cccc(C(NCc2ncc[nH]2)c2ccccn2)c1` (stereo not given) | -19.72% | 2.946% |

The values are deposited in ChEMBL (CHEMBL3988442, “University of Dundee, Small-Polar-MMV Screening Library” (2021)).